Reference: PMC7794308
These are yes or no findings as the source states them, for the method shown. For part of these data: Binding seen in cells or lysates may run through a third protein. Some binding calls cover weakened binding; strength is not graded here. One block for each molecule: values may come before it.

Sequences of proteins named here, by UniProt entry; tags and fusion partners are left off.
UniProt Q9Y113: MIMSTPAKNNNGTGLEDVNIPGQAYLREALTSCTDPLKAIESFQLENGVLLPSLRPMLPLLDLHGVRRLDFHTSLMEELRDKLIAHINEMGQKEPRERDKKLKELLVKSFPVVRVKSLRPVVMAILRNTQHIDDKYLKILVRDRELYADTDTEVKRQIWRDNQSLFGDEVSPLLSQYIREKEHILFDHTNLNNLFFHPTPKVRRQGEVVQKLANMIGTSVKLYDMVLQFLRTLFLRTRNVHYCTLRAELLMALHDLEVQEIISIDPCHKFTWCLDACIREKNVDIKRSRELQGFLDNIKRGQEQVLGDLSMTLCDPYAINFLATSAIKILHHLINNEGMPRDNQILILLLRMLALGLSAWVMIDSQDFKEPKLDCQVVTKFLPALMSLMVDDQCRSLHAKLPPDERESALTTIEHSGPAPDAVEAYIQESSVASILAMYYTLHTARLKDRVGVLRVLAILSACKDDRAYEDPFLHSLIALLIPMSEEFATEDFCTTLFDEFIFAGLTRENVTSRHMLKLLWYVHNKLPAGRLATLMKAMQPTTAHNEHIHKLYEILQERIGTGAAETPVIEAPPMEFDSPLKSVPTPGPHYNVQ

Legend:
[1] = target: T1, NELF-E subunit of the Negative ELongation Factor (NELF) (Drosophila (endogenous in S2 cells)) (UniProt P92204); assay: immunodepletion of nuclear extract; depletion of NELF-A, NELF-B or NELF-E with specific antibodies from the nuclear protein extract of uninduced Drosophila S2 cells; what is left in the extract read by Western blot; IgG depletion as control
T1 sequence: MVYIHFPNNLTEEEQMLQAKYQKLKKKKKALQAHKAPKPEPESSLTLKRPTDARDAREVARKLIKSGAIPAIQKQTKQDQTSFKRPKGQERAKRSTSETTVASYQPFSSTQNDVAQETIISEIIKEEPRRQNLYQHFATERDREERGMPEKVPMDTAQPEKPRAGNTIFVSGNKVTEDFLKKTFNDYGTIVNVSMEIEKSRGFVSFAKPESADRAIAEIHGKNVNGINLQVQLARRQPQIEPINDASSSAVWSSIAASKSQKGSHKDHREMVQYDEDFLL

[2] = target: T2, ecdysone receptor (EcR) (Drosophila (endogenous in S2 cells)) (UniProt P34021); assay: co-IP; immunoprecipitation with antibodies against NELF-A, NELF-B, NELF-E and EcR from nuclear protein extract of uninduced Drosophila S2 cells from which NELF-B had been depleted; Western blot
T2 sequence: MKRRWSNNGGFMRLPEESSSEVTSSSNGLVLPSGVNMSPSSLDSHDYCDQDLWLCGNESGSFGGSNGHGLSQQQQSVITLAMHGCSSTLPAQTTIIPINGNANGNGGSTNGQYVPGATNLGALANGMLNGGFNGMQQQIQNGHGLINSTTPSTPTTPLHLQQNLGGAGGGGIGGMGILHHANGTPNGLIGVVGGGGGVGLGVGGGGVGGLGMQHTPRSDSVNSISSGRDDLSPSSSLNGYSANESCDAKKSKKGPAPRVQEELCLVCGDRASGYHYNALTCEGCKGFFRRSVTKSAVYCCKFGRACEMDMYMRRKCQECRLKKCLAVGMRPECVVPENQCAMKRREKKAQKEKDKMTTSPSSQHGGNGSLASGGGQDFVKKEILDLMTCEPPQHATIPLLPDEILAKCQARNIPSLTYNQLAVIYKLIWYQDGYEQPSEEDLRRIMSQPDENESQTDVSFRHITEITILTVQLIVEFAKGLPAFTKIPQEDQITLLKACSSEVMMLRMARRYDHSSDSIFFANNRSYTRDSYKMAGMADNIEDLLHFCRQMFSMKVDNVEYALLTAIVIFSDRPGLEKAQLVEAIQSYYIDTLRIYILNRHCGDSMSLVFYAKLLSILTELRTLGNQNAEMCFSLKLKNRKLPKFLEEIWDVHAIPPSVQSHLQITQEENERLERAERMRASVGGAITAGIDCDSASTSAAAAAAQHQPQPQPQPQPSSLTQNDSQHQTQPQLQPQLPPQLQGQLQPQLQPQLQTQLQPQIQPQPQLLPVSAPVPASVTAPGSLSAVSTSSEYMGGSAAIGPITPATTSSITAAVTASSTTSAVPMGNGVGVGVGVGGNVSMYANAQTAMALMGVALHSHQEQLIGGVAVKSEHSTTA

[3] = target: T2, ecdysone receptor (EcR) (Drosophila (endogenous in S2 cells)); assay: co-IP; immunoprecipitation with antibodies against NELF-A, NELF-B, NELF-E and EcR from nuclear protein extracts of 1-h 20E- and DMSO-treated Drosophila S2 cells; Western blot; serum of non-immunized rabbits as negative control
[4] = target: NELF-B subunit of the Negative ELongation Factor (NELF) (Drosophila (endogenous in S2 cells)) (UniProt Q9Y113); assay: immunodepletion of nuclear extract; depletion of NELF-A, NELF-B or NELF-E with specific antibodies from the nuclear protein extract of uninduced Drosophila S2 cells; what is left in the extract read by Western blot; IgG depletion as control
[5] = target: T3, NELF-A subunit of the Negative ELongation Factor (NELF) (Drosophila (endogenous in S2 cells)) (UniProt Q86NP2); assay: co-IP; immunoprecipitation with antibodies against NELF-A, NELF-B, NELF-E and EcR from nuclear protein extracts of 1-h 20E- and DMSO-treated Drosophila S2 cells; Western blot; serum of non-immunized rabbits as negative control
T3 sequence: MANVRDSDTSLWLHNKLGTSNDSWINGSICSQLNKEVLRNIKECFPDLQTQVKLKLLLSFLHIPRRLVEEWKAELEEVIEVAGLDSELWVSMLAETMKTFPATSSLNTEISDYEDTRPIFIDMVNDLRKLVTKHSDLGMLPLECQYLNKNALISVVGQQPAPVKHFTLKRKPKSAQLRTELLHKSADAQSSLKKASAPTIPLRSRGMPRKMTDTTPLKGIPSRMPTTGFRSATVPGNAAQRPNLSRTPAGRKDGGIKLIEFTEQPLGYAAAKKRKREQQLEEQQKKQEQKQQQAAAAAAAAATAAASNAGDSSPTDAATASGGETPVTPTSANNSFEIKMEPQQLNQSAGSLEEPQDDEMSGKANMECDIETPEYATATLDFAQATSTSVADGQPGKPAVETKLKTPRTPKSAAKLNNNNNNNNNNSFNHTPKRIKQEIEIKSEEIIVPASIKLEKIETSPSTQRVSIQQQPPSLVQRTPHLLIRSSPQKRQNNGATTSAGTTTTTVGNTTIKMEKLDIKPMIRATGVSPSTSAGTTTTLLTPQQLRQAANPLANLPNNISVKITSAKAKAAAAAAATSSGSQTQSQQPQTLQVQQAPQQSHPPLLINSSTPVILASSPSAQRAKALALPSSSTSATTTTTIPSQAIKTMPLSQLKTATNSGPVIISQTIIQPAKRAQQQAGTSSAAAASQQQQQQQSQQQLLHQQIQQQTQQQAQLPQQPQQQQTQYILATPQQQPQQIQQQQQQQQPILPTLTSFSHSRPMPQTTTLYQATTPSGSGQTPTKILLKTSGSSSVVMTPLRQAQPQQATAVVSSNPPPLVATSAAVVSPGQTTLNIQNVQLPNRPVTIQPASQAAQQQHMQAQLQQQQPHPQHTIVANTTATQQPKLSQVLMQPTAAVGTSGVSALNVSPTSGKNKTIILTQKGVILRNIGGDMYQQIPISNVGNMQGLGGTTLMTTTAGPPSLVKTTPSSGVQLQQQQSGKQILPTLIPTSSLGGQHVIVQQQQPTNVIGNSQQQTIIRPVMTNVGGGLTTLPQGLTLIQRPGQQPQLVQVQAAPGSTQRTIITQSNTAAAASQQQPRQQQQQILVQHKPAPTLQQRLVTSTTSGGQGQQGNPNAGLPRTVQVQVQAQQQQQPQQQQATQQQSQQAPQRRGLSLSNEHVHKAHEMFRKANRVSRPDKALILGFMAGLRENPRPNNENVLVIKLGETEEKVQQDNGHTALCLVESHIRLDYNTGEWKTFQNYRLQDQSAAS

binding [1]: binds
Molecule: NELF-B subunit of the Negative ELongation Factor (NELF) (from UniProt Q9Y113 1-594)

binding [2]: binds
binding [3]: binds
binding [1]: binds
B1: NELF-A subunit of the Negative ELongation Factor (NELF) (protein, UniProt Q86NP2 1-1251)
chain: T3 sequence

binding [4]: binds
B2: NELF-E subunit of the Negative ELongation Factor (NELF) (protein, UniProt P92204 1-280)
chain: T1 sequence

binding [5]: binds
B3: ecdysone receptor (EcR) (receptor, UniProt P34021 1-878)
chain: T2 sequence
